Test results published in publication PMC6211773.

By UniProt entry, the sequences of proteins in these tests, tags left out. Where a name states a change or a piece, a line headed by the entry shows the natural chain unless it says otherwise.
UniProt Q57YF8: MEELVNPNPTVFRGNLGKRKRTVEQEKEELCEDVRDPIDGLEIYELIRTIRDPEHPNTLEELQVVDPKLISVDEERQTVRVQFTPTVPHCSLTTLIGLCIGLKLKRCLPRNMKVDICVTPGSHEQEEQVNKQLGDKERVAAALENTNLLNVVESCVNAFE
UniProt Q57YJ9: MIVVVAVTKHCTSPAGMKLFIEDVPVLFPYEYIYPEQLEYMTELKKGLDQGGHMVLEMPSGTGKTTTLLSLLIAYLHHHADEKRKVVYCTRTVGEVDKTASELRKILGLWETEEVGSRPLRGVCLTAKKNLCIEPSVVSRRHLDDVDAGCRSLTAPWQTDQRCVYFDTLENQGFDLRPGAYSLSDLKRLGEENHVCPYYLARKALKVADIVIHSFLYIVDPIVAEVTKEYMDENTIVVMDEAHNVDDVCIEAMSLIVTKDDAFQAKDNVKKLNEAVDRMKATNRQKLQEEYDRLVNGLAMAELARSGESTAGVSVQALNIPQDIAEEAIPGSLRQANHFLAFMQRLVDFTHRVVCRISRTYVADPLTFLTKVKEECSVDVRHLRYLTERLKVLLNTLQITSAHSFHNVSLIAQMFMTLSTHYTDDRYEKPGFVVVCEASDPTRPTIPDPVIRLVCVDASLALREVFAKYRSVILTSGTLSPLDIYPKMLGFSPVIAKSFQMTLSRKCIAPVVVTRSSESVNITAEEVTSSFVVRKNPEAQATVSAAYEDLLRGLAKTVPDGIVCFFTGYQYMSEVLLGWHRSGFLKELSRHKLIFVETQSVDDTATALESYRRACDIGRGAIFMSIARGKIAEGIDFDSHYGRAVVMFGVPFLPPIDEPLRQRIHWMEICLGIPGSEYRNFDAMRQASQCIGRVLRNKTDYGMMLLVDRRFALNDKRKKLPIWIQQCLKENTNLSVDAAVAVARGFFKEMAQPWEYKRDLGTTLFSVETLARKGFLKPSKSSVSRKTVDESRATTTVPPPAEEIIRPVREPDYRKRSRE
UniProt Q388J9: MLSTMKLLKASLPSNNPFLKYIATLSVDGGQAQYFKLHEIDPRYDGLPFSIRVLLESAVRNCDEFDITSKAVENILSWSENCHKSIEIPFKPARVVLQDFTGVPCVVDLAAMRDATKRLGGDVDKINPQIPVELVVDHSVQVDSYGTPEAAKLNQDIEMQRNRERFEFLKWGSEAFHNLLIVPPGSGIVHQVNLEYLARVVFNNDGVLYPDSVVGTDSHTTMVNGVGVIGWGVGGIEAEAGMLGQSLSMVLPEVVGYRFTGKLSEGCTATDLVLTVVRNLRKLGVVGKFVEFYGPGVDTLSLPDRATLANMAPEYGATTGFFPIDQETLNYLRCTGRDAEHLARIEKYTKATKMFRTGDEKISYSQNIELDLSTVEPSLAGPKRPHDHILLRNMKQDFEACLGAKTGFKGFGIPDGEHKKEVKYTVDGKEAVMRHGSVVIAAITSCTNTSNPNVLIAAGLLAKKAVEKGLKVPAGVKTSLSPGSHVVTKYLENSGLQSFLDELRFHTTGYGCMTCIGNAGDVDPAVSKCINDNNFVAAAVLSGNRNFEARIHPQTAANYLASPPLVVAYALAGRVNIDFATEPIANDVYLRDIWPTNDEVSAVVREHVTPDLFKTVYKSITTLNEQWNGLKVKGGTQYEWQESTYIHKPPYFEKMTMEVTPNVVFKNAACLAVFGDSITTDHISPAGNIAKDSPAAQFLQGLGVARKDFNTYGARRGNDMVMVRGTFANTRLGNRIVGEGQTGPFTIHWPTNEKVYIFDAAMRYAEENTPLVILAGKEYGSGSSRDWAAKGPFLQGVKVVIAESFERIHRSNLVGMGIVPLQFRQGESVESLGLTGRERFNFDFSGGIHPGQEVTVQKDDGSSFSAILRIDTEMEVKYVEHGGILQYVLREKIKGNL

Biological target: rTbCIA2B (Trypanosoma brucei) (UniProt Q57YF8)
Test: pull-down; 400 pmoles of rTbCIA2B immobilised on Strep-Tactin resin, incubated with PCF extracts; anti-HA Western blot; only the target purified

Substance: TbXPD-HA (from UniProt Q57YJ9)
- binding: binds

Substance: TbACO-HA (from UniProt Q388J9)
- binding: binds

Results are given in words; binding and its absence hold for the method and conditions named. In cells and extracts the contact can be indirect. Binding calls can cover weak binding; strength is not graded here.
